Values as published with doi:10.1371/journal.pone.0140310, rounded.

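Human melanoma cells were exposed to a pair of drugs for 72 h in 1,536-well plates and read by automated microscopy after fixing and staining. Each value is the cleaved-PARP-positive fraction of nuclei relative to DMSO-treated wells, in %, so that 100 equals the control and higher values mean more apoptosis. Every drug was used at one fixed concentration, the higher of two screened. The file gives one value for each pair and line, without errors, so small differences may be noise. Basal and induced levels differ widely between cell lines.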 This is part of the screen, not chosen by result. An entry leaves out what has no value listed here. A dash means that no value is listed here.

Every entry is a combination with tamatinib at 2 µM: COc1cc(Nc2ncc(F)c(Nc3ccc4c(n3)NC(=O)C(C)(C)O4)n2)cc(OC)c1OC

Second drug	COLO 792	IST-MEL1	A101D	MeWo	A2058	UACC-257	WM1716	UACC-62	MZ2-MEL
CC1(C)NC(=O)N(c2ccc([N+](=O)[O-])c(C(F)(F)F)c2)C1=O at 5 µM	117	211	944	93.4	134	265	172	149	86.5
Cn1nnc2c(C(N)=O)ncn2c1=O at 10 µM	700	709	857	57.9	346	78.2	307	152	20.5
C[C@]12O[C@H](C[C@]1(O)CO)n1c3ccccc3c3c4c(c5c6ccccc6n2c5c31)CNC4=O at 0.02 µM	343	77.8	332	105	144	77.2	50.9	72.6	283
CCCCCCCCCCCC1=C(O)C(=O)C=C(O)C1=O at 6 µM	523	228	234	65.3	227	66.7	213	7.9	19.2
OCCn1cc(-c2cnc3nnn(Cc4ccc5ncccc5c4)c3n2)cn1 at 5 µM	315	75.6	308	176	184	97.8	84.5	345	158
Nc1cccc2c1CN(C1CCC(=O)NC1=O)C2=O (centres undefined) at 5 µM	452	72.7	252	164	166	48.9	80.2	141	292
C=CCNC1=C2C[C@@H](C)C[C@H](OC)[C@H](O)[C@@H](C)/C=C(\C)[C@H](OC(N)=O)[C@@H](OC)/C=C\C=C(/C)C(=O)NC(=CC1=O)C2=O at 0.01 µM	519	1190	941	328	439	46.9	282	310	98.2
COc1cc([C@@H]2c3cc4c(cc3[C@@H](O[C@@H]3O[C@@H]5CO[C@@H](C)O[C@H]5[C@H](O)[C@H]3O)[C@H]3COC(=O)[C@H]23)OCO4)cc(OC)c1O at 0.1 µM	247	67.4	353	-	203	94.8	196	199	75.5
O=c1cc(-c2cccc3c2Sc2ccccc2S3)oc(N2CCOCC2)c1 at 5 µM	104	114	325	89.6	222	20.4	227	107	87.9
c1cc(-c2cnn3cc(-c4ccc(OCCN5CCCCC5)cc4)cnc23)ccn1 at 2 µM	64.6	78.1	195	185	451	28.0	155	496	195
CS(=O)(=O)c1ccc(C(=O)Nc2ccc(Cl)c(-c3ccccn3)c2)c(Cl)c1 at 5 µM	215	91.2	315	143	198	58.6	99.5	117	331
CC(C)CCN1c2nc(Nc3cc(F)c(O)c(F)c3)ncc2N(C)C(=O)C1C (centres undefined) at 1 µM	334	239	732	203	235	26.9	168	76.0	133
C[C@@H]1CCN(C(=O)CC#N)C[C@@H]1N(C)c1ncnc2[nH]ccc12 at 5 µM	354	173	77.2	150	108	129	208	116	44.3
Cc1cc(N2CCOCC2)cc2[nH]c(-c3c(NC[C@@H](O)c4cccc(Cl)c4)cc[nH]c3=O)nc12 at 1 µM	834	185	893	269	198	62.2	122	242	130
CCN(CC)CCCCNc1ncc2cc(-c3cc(OC)cc(OC)c3)c(NC(=O)NC(C)(C)C)nc2n1 at 0.5 µM	262	59.2	170	179	179	86.8	93.1	111	179
NCC(=O)Nc1ccc(-n2nc(C(F)(F)F)cc2-c2ccc3c(ccc4ccccc43)c2)cc1 at 5 µM	555	391	1080	192	144	204	205	120	137
CNC(=O)c1cc(Oc2ccc(NC(=O)Nc3ccc(Cl)c(C(F)(F)F)c3)cc2)ccn1 at 2 µM	321	153	867	171	215	79.1	93.6	177	38.8
CC(=O)c1c(C)c2cnc(Nc3ccc(N4CCNCC4)cn3)nc2n(C2CCCC2)c1=O at 0.2 µM	332	126	289	48.0	180	49.0	116	93.6	-
NC(=O)c1ccc(N(C(N)=O)c2c(F)cccc2F)nc1-c1ccc(F)cc1F at 2 µM	288	90.2	347	141	252	96.5	199	138	261
CCCS(=O)(=O)Nc1ccc(F)c(C(=O)c2c[nH]c3ncc(Cl)cc23)c1F at 0.4 µM	305	818	79.9	37.9	257	93.5	783	293	85.4
O=C(/C=C/c1cccnc1)NCCCCC1CCN(C(=O)c2ccccc2)CC1 at 0.05 µM	2860	813	1520	51.6	104	35.0	143	107	448
CCN(CC)CCNC(=O)c1c(C)[nH]c(/C=C2\C(=O)Nc3ccc(F)cc32)c1C at 2 µM	309	224	162	141	269	159	144	97.3	203
Cn1c(Nc2ccc(C(F)(F)F)cc2)nc2cc(Oc3ccnc(-c4ncc(C(F)(F)F)[nH]4)c3)ccc21 at 0.4 µM	422	106	703	83.9	101	104	42.5	247	205
Oc1nc(-c2ccc(C(F)(F)F)cc2)nc2c1CSCC2 at 10 µM	360	121	85.2	101	167	71.3	71.9	99.5	73.3

For reference, 2 entries once more:

{"second drug": "CNC(=O)c1cc(Oc2ccc(NC(=O)Nc3ccc(Cl)c(C(F)(F)F)c3)cc2)ccn1 at 2 µM", "COLO 792": 321, "IST-MEL1": 153, "A101D": 867, "MeWo": 171, "A2058": 215, "UACC-257": 79.1, "WM1716": 93.6, "UACC-62": 177, "MZ2-MEL": 38.8}
{"second drug": "NC(=O)c1ccc(N(C(N)=O)c2c(F)cccc2F)nc1-c1ccc(F)cc1F at 2 µM", "COLO 792": 288, "IST-MEL1": 90.2, "A101D": 347, "MeWo": 141, "A2058": 252, "UACC-257": 96.5, "WM1716": 199, "UACC-62": 138, "MZ2-MEL": 261}